The exact form of at least one protein or probe is not confirmed. Where cells or extracts were used, other partners may take part. Weaker means in comparison with the reference protein, sequence or condition of that experiment.
Target: EGFR (cell-surface, endogenous) (UniProt P00533)
Assay: flow cytometry on cells
Conditions: 5'-alkyne clicked to AF488 azide (CuAAC triazole), 1e5 cells, 1-1000 nM oligonucleotide, 1 h at 37 C, 5% CO2, washed twice with DPBS (Ca/Mg), incubation medium and pH not stated, protein on the cell surface, label: 5'-AF488, single-stranded DNA

Question: What does the source list for “ACGCACCATTTGTTTAATATGTTTTTTAATTCCCCTTGTGGTGTGT [AF488-GR20]”?
Answer: binding result (A-431 cells (EGFR overexpressing), 1000 nM, about one order of magnitude above A1): binds; binding result (HCT-116 cells, weak staining, virtually no difference from A1): binds more weakly; binding result (U-87 cells, weak staining, virtually no difference from A1): binds more weakly; binding result (U-251 cells, 1000 nM, about two orders of magnitude above A1): binds

Question: Does GGTCGCTTATCTGCACTCGGA [AF488-A1] bind (A-431 cells, about one order of magnitude below GR20)?
Answer: Result: binds more weakly

Question: Does GGTCGCTTATCTGCACTCGGA [AF488-A1] bind (U-251 cells, very weak binding)?
Answer: Result: binds more weakly
